{"source": "PubChem BioAssay AID1259424 | University of Nebraska Medical Center, 2018", "aim": "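Find knockdowns that reproduce the expression shifts seen after KSR1 loss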 (primary screen)", "cell system": "human HCT116 colon cancer cells", "knock-down reagent": "siRNA pool against human genes, 50 nM", "measurement": "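Six signature mRNAs by branched-DNA multiplex assay, scaled to two housekeeping genes and non-targeting median, log2; matched to mean KSR1 knockdown profile by Pearson correlation and euclidean distance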", "scale": "mean correlation with KSR1 profile: higher = expression change more like KSR1 knockdown; mean distance from KSR1 profile: higher = expression change less like KSR1 knockdown", "note": "The deposit covers about 14,000 reagents; shown is an unselected part. 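Higher correlation or smaller distance means closer resemblance to KSR1 loss; control wells, including KSR1 knockdowns, recur on many plates.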 Further read-outs or replicates are left out here. Reagent sequences are not shown. Not stated in the record: the time to read-out."}
{"Target gene": "PLOD1", "PubChem SID": "SID363991634", "mean correlation with KSR1 profile": -0.337, "mean distance from KSR1 profile": 3.13}
{"Target gene": "NRDC", "PubChem SID": "SID363993697", "mean correlation with KSR1 profile": -0.491, "mean distance from KSR1 profile": 1.42}
{"Target gene": "WSCD2", "PubChem SID": "SID364005069", "mean correlation with KSR1 profile": -0.123, "mean distance from KSR1 profile": 2.43}
{"Target gene": "LGR4", "PubChem SID": "SID364001116", "mean correlation with KSR1 profile": 0.723, "mean distance from KSR1 profile": 1.44}
{"Target gene": "ZHX2", "PubChem SID": "SID363999213", "mean correlation with KSR1 profile": -0.152, "mean distance from KSR1 profile": 1.86}
{"Target gene": "APOE", "PubChem SID": "SID363991380", "mean correlation with KSR1 profile": -0.328, "mean distance from KSR1 profile": 1.49}
{"Target gene": "PGM2", "PubChem SID": "SID364000947", "mean correlation with KSR1 profile": -0.162, "mean distance from KSR1 profile": 2.21}
{"Target gene": "TMUB1", "PubChem SID": "SID364003619", "mean correlation with KSR1 profile": 0.448, "mean distance from KSR1 profile": 3.74}
{"Target gene": "CDKN2C", "PubChem SID": "SID363992547", "mean correlation with KSR1 profile": 0.519, "mean distance from KSR1 profile": 1.92}
{"Target gene": "HIVEP1", "PubChem SID": "SID363993320", "mean correlation with KSR1 profile": -0.264, "mean distance from KSR1 profile": 2.65}
{"Target gene": "CDAN1", "PubChem SID": "SID364004565", "mean correlation with KSR1 profile": -0.414, "mean distance from KSR1 profile": 2.4}
{"Target gene": "KDR", "PubChem SID": "SID363993452", "mean correlation with KSR1 profile": 0.267, "mean distance from KSR1 profile": 2.28}
{"Target gene": "DSCAML1", "PubChem SID": "SID364001782", "mean correlation with KSR1 profile": -0.606, "mean distance from KSR1 profile": 3.38}
{"Target gene": "FGFR1OP2", "PubChem SID": "SID363999613", "mean correlation with KSR1 profile": -0.644, "mean distance from KSR1 profile": 2.57}
{"Target gene": "KIR2DL5A", "PubChem SID": "SID364001730", "mean correlation with KSR1 profile": -0.311, "mean distance from KSR1 profile": 1.99}
{"Target gene": "MDFIC", "PubChem SID": "SID364004991", "mean correlation with KSR1 profile": 0.0138, "mean distance from KSR1 profile": 2.02}
{"Target gene": "MATN3", "PubChem SID": "SID363993561", "mean correlation with KSR1 profile": -0.181, "mean distance from KSR1 profile": 1.84}
{"Target gene": "ABHD1", "PubChem SID": "SID364004092", "mean correlation with KSR1 profile": 0.791, "mean distance from KSR1 profile": 0.794}
{"Target gene": "TFCP2L1", "PubChem SID": "SID363998930", "mean correlation with KSR1 profile": -0.0194, "mean distance from KSR1 profile": 2.39}
{"Target gene": "SLC2A10", "PubChem SID": "SID364003430", "mean correlation with KSR1 profile": -0.0139, "mean distance from KSR1 profile": 2.74}
{"Target gene": "SEMA4G", "PubChem SID": "SID364000618", "mean correlation with KSR1 profile": -0.725, "mean distance from KSR1 profile": 3.52}
{"Target gene": "CD3D", "PubChem SID": "SID363992028", "mean correlation with KSR1 profile": 0.0561, "mean distance from KSR1 profile": 1.79}
{"Target gene": "TFIP11", "PubChem SID": "SID363998088", "mean correlation with KSR1 profile": -0.272, "mean distance from KSR1 profile": 2.3}
{"Target gene": "TBC1D5", "PubChem SID": "SID363999074", "mean correlation with KSR1 profile": -0.56, "mean distance from KSR1 profile": 1.53}
{"Target gene": "NFRKB", "PubChem SID": "SID363996994", "mean correlation with KSR1 profile": -0.0491, "mean distance from KSR1 profile": 3.19}
{"Target gene": "ARHGEF26", "PubChem SID": "SID363999591", "mean correlation with KSR1 profile": -0.0821, "mean distance from KSR1 profile": 1.84}
{"Target gene": "COMMD10", "PubChem SID": "SID363999908", "mean correlation with KSR1 profile": -0.678, "mean distance from KSR1 profile": 2.81}
{"Target gene": "PICK1", "PubChem SID": "SID363998292", "mean correlation with KSR1 profile": 0.52, "mean distance from KSR1 profile": 1.82}

Taken from above.
Result for TFIP11 [SID363998088] in “mean correlation with KSR1 profile”: -0.272
Entry for CD3D [SID363992028] in “mean correlation with KSR1 profile”: 0.0561
